PubChem BioAssay AID1224831 | NIAID, 2016

- Aim: 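Confirming genome-wide hits on LPS-triggered TNF-alpha induction with independent siRNA sequences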 (follow-up of hits)
- System: human THP-1 B5 monocytic leukaemia cells carrying a TNF promoter luciferase reporter, made macrophage-like with PMA
- Reagent: single siRNA against human genes, 50 nM
- Timing: about 68 h of knock-down, then 4 h LPS
- Treatment: LPS (Salmonella minnesota, TLR-grade) at 10 ng/ml for 4 h; PMA 5 ng/ml present during knock-down
- Read-out: 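Firefly to renilla luciferase ratio of a TNF promoter reporter after 4 h LPS, scaled to plate median, turned into robust z-score, averaged over replicates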
- Scale: TNF reporter z-score: higher = stronger LPS-induced TNF reporter signal; z-score, median over gene's siRNAs: higher = stronger TNF reporter signal across the gene's siRNAs
- Call rule: 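Active when the replicate mean z-score is about -1 or lower, or about 1.5 or higher; lowered and raised TNF reporter signal both count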
- Calls: active = changed TNF reporter (either direction); inactive = little change
Here is one part, drawn at random, of about 3,500 deposited reagents. Of all reagents, 731 (21%) got an active call. 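Active means either lowered or raised reporter signal; the gene-median score did not drive the per-siRNA calls.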 Reagents against one gene are numbered here.

no.	gene knocked down	siRNA no.	TNF reporter z-score, replicate mean	z-score, median over gene's siRNAs	Call
1	H3C14	1	0.78	-0.05	inactive
2	H3C14	2	0.17	-0.05	inactive
3	H3C14	3	-0.5	-0.05	inactive
4	H3C14	4	-0.58	-0.05	inactive
5	H3C14	5	0.16	-0.05	inactive
6	H3C14	6	-0.26	-0.05	inactive
7	TRAF4	1	-0.86	-0.49	inactive
8	TRAF4	2	-1.21	-0.49	active
9	TRAF4	3	2.39	-0.49	active
10	TRAF4	4	0.15	-0.49	inactive
11	TRAF4	5	-0.44	-0.49	inactive
12	TRAF4	6	-0.54	-0.49	inactive
13	PCDHGB1	1	-0.45	0.61	inactive
14	PCDHGB1	2	0.04	0.61	inactive
15	PCDHGB1	3	1.24	0.61	inactive
16	PCDHGB1	4	1.29	0.61	inactive
17	PCDHGB1	5	0.45	0.61	inactive
18	PCDHGB1	6	0.77	0.61	inactive
19	FKBP10	1	-0.42	-0.26	inactive
20	FKBP10	2	-0.22	-0.26	inactive
21	FKBP10	3	0.26	-0.26	inactive
22	FKBP10	4	0.18	-0.26	inactive
23	FKBP10	5	-0.77	-0.26	inactive
24	FKBP10	6	-0.3	-0.26	inactive
25	SCGB1D2	1	0.68	0.87	inactive
26	SCGB1D2	2	1.39	0.87	inactive
27	SCGB1D2	3	1.06	0.87	inactive
28	SCGB1D2	4	-0.53	0.87	inactive
29	SCGB1D2	5	0.2	0.87	inactive
30	SCGB1D2	6	1.92	0.87	active
31	HEATR4	1	0.34	0.53	inactive
32	HEATR4	2	0.58	0.53	inactive
33	HEATR4	3	2.7	0.53	active
34	HEATR4	4	0.48	0.53	inactive
35	HEATR4	5	-0.9	0.53	inactive
36	HEATR4	6	1.27	0.53	inactive
37	EEF1A2	1	0.8	0.33	inactive
38	EEF1A2	2	-0.5	0.33	inactive
39	EEF1A2	3	-0.14	0.33	inactive
40	EEF1A2	4	3.77	0.33	active
41	EEF1A2	5	-0.39	0.33	inactive
42	EEF1A2	6	1.93	0.33	active
43	B3GLCT	1	-0.51	-0.59	inactive
44	B3GLCT	2	-0.79	-0.59	inactive
45	B3GLCT	3	0.24	-0.59	inactive
46	B3GLCT	4	-0.67	-0.59	inactive
47	B3GLCT	5	-1.1	-0.59	active
48	B3GLCT	6	-0.12	-0.59	inactive
49	PIK3C2G	1	0.66	0.405	inactive
50	PIK3C2G	2	0.9	0.405	inactive
51	PIK3C2G	3	-0.67	0.405	inactive
52	PIK3C2G	4	-0.7	0.405	inactive
53	PIK3C2G	5	1.72	0.405	active
54	PIK3C2G	6	0.15	0.405	inactive
55	SLC26A9	1	0.96	0.785	inactive
56	SLC26A9	2	1.44	0.785	inactive
57	SLC26A9	3	0.65	0.785	inactive
58	SLC26A9	4	-1.35	0.785	active
59	SLC26A9	5	0.92	0.785	inactive
60	SLC26A9	6	-1.29	0.785	active
61	NPAS4	1	0.47	0.705	inactive
62	NPAS4	2	0.09	0.705	inactive
63	NPAS4	3	0.96	0.705	inactive
64	NPAS4	4	1.89	0.705	active
65	NPAS4	5	0.94	0.705	inactive
66	NPAS4	6	-0.37	0.705	inactive
67	CPNE8	1	0.46	0.54	inactive
68	CPNE8	2	0.62	0.54	inactive
69	CPNE8	3	1.21	0.54	inactive
70	CPNE8	4	-0.24	0.54	inactive
71	CPNE8	5	3.81	0.54	active
72	CPNE8	6	-0.47	0.54	inactive

Continued, starting with the last 7 of the part before.
no.	gene knocked down	siRNA no.	TNF reporter z-score, replicate mean	z-score, median over gene's siRNAs	Call
66	NPAS4	6	-0.37	0.705	inactive
67	CPNE8	1	0.46	0.54	inactive
68	CPNE8	2	0.62	0.54	inactive
69	CPNE8	3	1.21	0.54	inactive
70	CPNE8	4	-0.24	0.54	inactive
71	CPNE8	5	3.81	0.54	active
72	CPNE8	6	-0.47	0.54	inactive
73	UCN3	1	-2.15	-0.395	active
74	UCN3	2	-0.49	-0.395	inactive
75	UCN3	3	-0.21	-0.395	inactive
76	UCN3	4	-1.37	-0.395	active
77	UCN3	5	0.03	-0.395	inactive
78	UCN3	6	-0.3	-0.395	inactive
79	BTNL8	1	-1.45	-0.465	active
80	BTNL8	2	-0.77	-0.465	inactive
81	BTNL8	3	-0.72	-0.465	inactive
82	BTNL8	4	-0.21	-0.465	inactive
83	BTNL8	5	0.04	-0.465	inactive
84	BTNL8	6	0.9	-0.465	inactive
85	PRND	1	0.93	0.89	inactive
86	PRND	2	-0.31	0.89	inactive
87	PRND	3	0.85	0.89	inactive
88	PRND	4	1.84	0.89	active
89	PRND	5	-2.05	0.89	active
90	PRND	6	1.61	0.89	active
91	TMEM203	1	1.29	0.465	inactive
92	TMEM203	2	0.23	0.465	inactive
93	TMEM203	3	0.9	0.465	inactive
94	TMEM203	4	-0.86	0.465	inactive
95	TMEM203	5	-0.32	0.465	inactive
96	TMEM203	6	0.7	0.465	inactive
97	PSMB4	1	-1.04	-1.1	active
98	PSMB4	2	0.8	-1.1	inactive
99	PSMB4	3	-1.63	-1.1	active
100	PSMB4	4	-1.28	-1.1	active
101	PSMB4	5	-1.17	-1.1	active
102	PSMB4	6	-0.32	-1.1	inactive
103	TTLL3	1	1.49	0.69	inactive
104	TTLL3	2	0.82	0.69	inactive
105	TTLL3	3	-0.89	0.69	inactive
106	TTLL3	4	-0.36	0.69	inactive
107	TTLL3	5	0.56	0.69	inactive
108	TTLL3	6	1.25	0.69	inactive
